Measurements published in patent US20040102611A1.
No constants are given. Whether binding was seen depends on the method and setting. Binding seen in cells or lysates may run through a third protein. Some binding calls cover weakened binding; strength is not graded here. Where a sequence is shown, tags or fusion partners need not be part of it.

Sequences of proteins named here, by UniProt entry; tags and fusion partners are left off. A change or cut given only in a name is not applied to a line headed by its entry.
UniProt O00311: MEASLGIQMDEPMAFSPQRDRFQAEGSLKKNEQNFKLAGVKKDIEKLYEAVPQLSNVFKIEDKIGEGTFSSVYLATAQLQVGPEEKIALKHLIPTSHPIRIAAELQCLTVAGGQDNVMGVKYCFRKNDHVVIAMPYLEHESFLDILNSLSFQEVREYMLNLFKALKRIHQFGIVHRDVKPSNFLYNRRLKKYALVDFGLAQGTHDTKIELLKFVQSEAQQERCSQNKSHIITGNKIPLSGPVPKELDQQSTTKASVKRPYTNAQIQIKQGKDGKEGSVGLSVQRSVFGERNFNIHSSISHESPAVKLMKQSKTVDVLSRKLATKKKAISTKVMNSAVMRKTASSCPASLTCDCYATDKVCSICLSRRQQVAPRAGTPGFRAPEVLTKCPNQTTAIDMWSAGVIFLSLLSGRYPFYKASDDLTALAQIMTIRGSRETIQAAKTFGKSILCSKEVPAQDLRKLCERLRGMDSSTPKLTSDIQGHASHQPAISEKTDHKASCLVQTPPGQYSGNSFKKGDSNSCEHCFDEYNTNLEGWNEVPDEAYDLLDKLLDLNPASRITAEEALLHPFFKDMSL

What was measured:
[1] = biological target: endogenous CDC7 of human 293 cells (human) (UniProt O00311); experiment: co-immunoprecipitation with anti-HA from transfected 293 cells, western blot with anti-CDC7
[2] = biological target: FLAG-tagged human CDC7 kinase, wild type (pCdc7FLAG-tagged, in pCMV-Tag2) (human) (UniProt O00311); experiment: reciprocal co-immunoprecipitation (anti-HA and anti-FLAG) from transfected 293 cells, western blot
[3] = biological target: FLAG-tagged human CDC7 kinase, kinase negative form K90R (pCdc7FLAG K90R) (human) (UniProt O00311); experiment: as above
[4] = biological target: FLAG-tagged human CDC7 kinase, wild type (pCdc7FLAG-tagged, in pCMV-Tag2) (human) (UniProt O00311); experiment: co-immunoprecipitation and western blot (legend of FIG. 2)

Measured: binding

B1: HA-DRF1 (DRF1 with N-terminal HA epitope, expressed from pCDNAHAdrf1) (protein, not shown: small tags and cut ends)
chain: SEPGKGDDCLELESSMAESRLRAPDLGVSRCLGKCQKNSPGARKHPFSGKSFYLDLPAGKNLQFLTGAIQQLGGVIEGFLSKEVSYIVSSRREVKAESSGKSHRGCPSPSPSEVRVETSAMVDPKGSHPRPSRKPVDSVPLSRGKELLQKAIRNQGSISGGGSGGSSSLLTNARSWGVRILHVDEMMMHVQQLSLASLCVKKQQPKKPEGTCPAAESRTRKVARLKAPFLKIEDESRKFRPFHHQFKSFPEISFLGPKDASPFEAPTTLGSMHHTRESKDGEPSPRSAAHTMPRRKKGYCECCQEAFEELHVHLQSAQHRSFALEAHLYAEVDRIIAQLSHSFADIPFQAGLPRWSGSPASDCDPLCPETLHPHQPSHPRAASPRIRKEDSCQASVTQGRAAGQQRWTESLDGVMGPPASHTCVSATTLLPALPKGSREQGCLCPCPASFTQSHLVTSLALLPGEWSPAEDMPLHPSQENSFAPADIPVKGPLLFPEARPWLMSARCWVRPFPFVTWGCLIPHDTTPLHEEVSPCPCLRLGYLYLLLTQSLWCRVRVPSLSTAGPIPRTSHPCTLAFPSYLNDHDLGHLCQAKPQGWNTPQPFLHCGFLAVDSG
binds: [1] | [2] | [3] | [4]
